From paper PMC4675518
No constants are given. Whether binding was seen depends on the method and setting. In cells and extracts the contact can be indirect. Some results given as binding are weak or reduced against the parent protein; the word gives no strength.

Protein sequences, listed by entry. Tags and fused reporters are not part of them. Residues count along the entry.
UniProt Q15848, residues 19-244: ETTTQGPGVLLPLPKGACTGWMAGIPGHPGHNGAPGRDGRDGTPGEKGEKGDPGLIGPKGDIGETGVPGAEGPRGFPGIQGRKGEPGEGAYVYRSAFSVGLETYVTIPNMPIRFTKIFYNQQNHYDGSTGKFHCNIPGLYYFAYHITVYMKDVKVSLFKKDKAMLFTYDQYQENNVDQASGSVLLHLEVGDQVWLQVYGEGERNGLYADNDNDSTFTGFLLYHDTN
UniProt Q04206: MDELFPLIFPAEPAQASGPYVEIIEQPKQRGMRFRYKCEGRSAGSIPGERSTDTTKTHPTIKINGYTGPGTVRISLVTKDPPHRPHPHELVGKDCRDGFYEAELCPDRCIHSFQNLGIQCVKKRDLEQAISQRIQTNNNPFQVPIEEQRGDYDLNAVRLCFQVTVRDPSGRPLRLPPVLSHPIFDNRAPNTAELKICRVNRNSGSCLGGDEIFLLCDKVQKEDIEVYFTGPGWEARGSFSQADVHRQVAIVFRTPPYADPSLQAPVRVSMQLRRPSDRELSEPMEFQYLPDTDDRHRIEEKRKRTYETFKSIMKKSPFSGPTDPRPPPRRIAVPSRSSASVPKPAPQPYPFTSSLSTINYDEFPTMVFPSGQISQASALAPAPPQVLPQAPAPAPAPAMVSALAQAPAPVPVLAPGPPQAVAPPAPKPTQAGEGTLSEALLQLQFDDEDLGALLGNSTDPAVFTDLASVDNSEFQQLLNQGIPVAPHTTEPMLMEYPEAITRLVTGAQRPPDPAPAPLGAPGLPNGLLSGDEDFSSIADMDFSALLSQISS

Tests used:
[1] = molecular target: adiponectin (human (endogenous in A549)) (UniProt Q15848); test: co-IP; A549 cells (curcumin, adiponectin silenced or transfected) lysed, adiponectin precipitated with adiponectin antibody, immunoblot shows bands of adiponectin monomer, dimer and multimer
[2] = molecular target: p65 (NF-κB subunit) (human (endogenous in A549)) (UniProt Q04206); test: co-IP; A549 nuclear proteins (800 μg), precleared, incubated with 2 μg anti-adiponectin, anti-p65 or control rabbit IgG for 4 h, protein A/G agarose overnight at 4°C; immunoblot with anti-adiponectin and anti-p65; cells treated with curcumin, adiponectin siRNA or adiponectin vector

adiponectin (from UniProt Q15848 19-244)
binding [1]: binds
binding [2]: binds
